Measured values: article doi:10.1101/2022.04.07.487468

Biological target: zfRor2-ΔCRD-mCherry (zebrafish)
Experiment: fluorescence cross-correlation spectroscopy

- binding: no binding (tested: >6678nM)
B1: zfWnt5b-GFP (ligand, UniProt Q92050 22-363)
chain: QLLVVANSWWSLAMNPIQRPEMYIIGAQPLCSQLTGLSQGQRKLCQLYQDHMVYIGEGAKTGIKECQYQFRQRRWNCSTVDNTSVFGRVMHIGSRETAFTYAVSAAGVVNAVSRACREGELSTCGCSRAARPRDLPRDWLWGGCGDNVNYGYRFAREFVDAREREKNYPRGSVEHARTLMNLQNNEAGRMAVYNLANVACKCHGVSGSCSLKTCWLQLADFRRVGEFLKEKYDSAAAMRINRRGKLELVNNRFNPPTGEDLVYIDPSPDYCLRNETTGSLGTQGRLCNKTSEGMDGCELMCCGRGYDQFKTYKHERCHCKFHWCCYVKCKRCTSLVDQFVCK

No constants are given. Whether binding was seen depends on the method and setting. Tags and fused reporters may be left off the sequences shown.
